Measurements: PubChem BioAssay AID256 (DTP/NCI, 2004)
The list is a part of this screen's results and no random one: it gathers tests that were run many times, whatever their T/C, doses with no T/C, and many T/C values between a quarter and a half above the control. Other doses and runs of a compound stand elsewhere. T/C: endpoint of the treated group in % of that of the vehicle group. Some doses have a count of surviving animals in place of a T/C: the source files T/C as zero there, which appears to mark a toxic dose or a test without result, not a measured value. Some doses without a T/C left all or most animals alive at the check, yet need not have been tolerated: survival well below the control is almost never listed, so the zero probably covers shortened survival too. Survivors were counted at the toxicity check, usually on the fifth day, unless a day is given; later deaths do not show. Schedule codes are those of the source, read here as Q, the interval in days (D) or hours (H), X, the number of doses. Some molecules as drawn cover several salts, stereoisomers or complexes of the source; a dose is that of the sample tested. Where survival is the endpoint, this PubChem deposit counts one and a half times the control or more as active, and values a quarter to a half above the control carry no call in these data; other NCI protocols may use other cut-offs.

System: CD2F1 mice, L1210 leukemia ip, survival T/C
Assay: NCI In Vivo Anticancer Drug Screen. Data for tumor model L1210 Leukemia (intraperitoneal) in CD2F1 (CDF1) mice
Conditions: higher T/C = longer survival
Procedure, shortened: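 Mice carrying a transplanted tumor received test compound or vehicle alone. The value is the measurement in the treated group divided by that in the vehicle-treated control group.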

[1] = T/C endpoint: mean survival time, dose: 200.0 mg/kg/injection, schedule: Q04DX003 (ip), vehicle: saline with Tween-80
[2] = T/C endpoint: mean survival time, dose: 400.0 mg/kg/injection, schedule: Q04DX003 (ip), vehicle: saline with Tween-80
[3] = T/C endpoint: mean survival time, dose: 100.0 mg/kg/injection, schedule: Q04DX003 (ip), vehicle: saline with Tween-80
[4] = T/C endpoint: mean survival time, dose: 300.0 mg/kg/injection, schedule: Q01DX001 (ip), vehicle: saline
[5] = T/C endpoint: mean survival time, dose: 50.0 mg/kg/injection, schedule: Q01DX009 (ip), vehicle: saline with Tween-80

`COc1cc2cc3c4ccc(OC)c(OC)c4cc[n+]3c(C)c2cc1OC` (tested in a mixture with another compound) was tested, and the survivor count (T/C endpoint: mean survival time, dose: 100.0 mg/kg/injection, schedule: Q01DX009 (ip), vehicle: other) was 0 of 6 and the survivor count (T/C endpoint: mean survival time, dose: 200.0 mg/kg/injection, schedule: Q01DX009 (ip), vehicle: other) was 0 of 6.
For `CC1CC(C)(C)NC(CC2CCCCC2O)O1` (stereo not given), the survivor count [1] was 3 of 6 and the survivor count [2] was 0 of 6.
`[Cl][Hg][Cl]` was tested, and the survivor count (T/C endpoint: median survival time, dose: 6.25 mg/kg/injection, schedule: Q01DX009 (ip), vehicle: saline) was 1 of 6.
With `O=C(CC1NCCCC1O)Cn1cnc2cc3c(cc2c1=O)OCO3` (stereo not given) the survivor count [3] was 1 of 6, the survivor count [1] was 0 of 6 and the survivor count [2] was 0 of 6.
In the case of `C1CCC(CCNCCC2CCCCC2)CC1`, the survivor count (T/C endpoint: mean survival time, dose: 75.0 mg/kg/injection, schedule: Q01DX001 (ip), vehicle: saline) is reported as 3 of 6, the survivor count (T/C endpoint: mean survival time, dose: 150.0 mg/kg/injection, schedule: Q01DX001 (ip), vehicle: saline) is reported as 2 of 6 and the survivor count [4] is reported as 0 of 6.
In the case of `ClCCN(CCCl)c1ccc(CCCCN2CCOCC2)cc1`, the T/C (T/C endpoint: mean survival time, dose: 20.0 mg/kg/injection, schedule: Q01DX009 (ip), vehicle: saline) is reported as 130 % of control.
For `CC(C)(C)c1ccc(C(=O)C2CC2)cc1`, the survivor count [2] was 6 of 6.
With `CC1CCC(NC(=O)NCCF)CC1` (stereo not given) the survivor count (T/C endpoint: mean survival time, dose: 300.0 mg/kg/injection, schedule: Q01DX001 (ip), vehicle: other) was 0 of 6.
With `CC(=O)CC(C)(C)C1CCCCC1` the survivor count (T/C endpoint: mean survival time, dose: 400.0 mg/kg/injection, schedule: Q01DX009 (ip), vehicle: Klucel (hydroxypropylcellulose) (HPC)) was 6 of 6.
For `CNC(=O)OCc1nc(SC)n(C)c1COC(=O)NC`, the T/C (T/C endpoint: median survival time, dose: 40.0 mg/kg/injection, schedule: Q01DX005 (ip), vehicle: saline) was 144 % of control, the T/C (T/C endpoint: median survival time, dose: 50.0 mg/kg/injection, schedule: Q01DX005 (ip), vehicle: suspension in saline) was 127 % of control and the T/C (T/C endpoint: median survival time, dose: 80.0 mg/kg/injection, schedule: Q01DX005 (ip), vehicle: saline) was 141 % of control. For the same compound, the T/C (T/C endpoint: median survival time, dose: 100.0 mg/kg/injection, schedule: Q01DX005 (ip), vehicle: saline) was 145 % of control, the T/C (T/C endpoint: median survival time, dose: 100.0 mg/kg/injection, schedule: Q01DX005 (ip), vehicle: suspension in saline) was 145 % of control and the survivor count (T/C endpoint: median survival time, dose: 200.0 mg/kg/injection, schedule: Q01DX005 (ip), vehicle: saline) was 6 of 6.
With `CC[As](=O)(O)c1ccc([N+](=O)[O-])cc1` the survivor count (T/C endpoint: mean survival time, dose: 100.0 mg/kg/injection, schedule: Q01DX001 (ip), vehicle: saline with Tween-80) was 3 of 6.
In the case of `O=[N+]([O-])c1cc(Cl)c(Cl)cc1[N+](=O)[O-]`, the survivor count (T/C endpoint: mean survival time, dose: 400.0 mg/kg/injection, schedule: Q01DX001 (ip), vehicle: saline with Tween-80) is reported as 0 of 3.
In the case of `CCCCCCCCCCCCOC(=O)C[n+]1cccc(C(=O)Nc2ccccc2)c1`, the survivor count [5] is reported as 3 of 6, the survivor count (T/C endpoint: mean survival time, dose: 100.0 mg/kg/injection, schedule: Q01DX009 (ip), vehicle: saline with Tween-80) is reported as 3 of 6 and the survivor count [1] is reported as 1 of 6. For the same compound, the survivor count [2] was 0 of 6.
`O=S(=O)(O)SCCN1CCCC1` was tested, and the survivor count [3] was 5 of 6, the survivor count [1] was 2 of 6 and the survivor count [2] was 0 of 6.
`CC(C)(C)C1CCC(=O)C1` (stereo not given) was tested, and the survivor count [5] was 3 of 3.
With `O=C(O)C/C=C/Br` the survivor count [4] was 2 of 6.
With `CCCC(O)CNCc1ccc2c3c(cccc13)CC2` (stereo not given) the survivor count (T/C endpoint: mean survival time, dose: 100.0 mg/kg/injection, schedule: Q01DX001 (ip), vehicle: Klucel (hydroxypropylcellulose) (HPC)) was 0 of 3.
For `CC(C)c1ccccc1NC1=NCCO1`, the survivor count (T/C endpoint: mean survival time, dose: 400.0 mg/kg/injection, schedule: Q04DX003 (ip), vehicle: Klucel (hydroxypropylcellulose) (HPC)) was 1 of 6.
In the case of `CCOCCNCc1ccc(Cl)cc1Cl`, the survivor count [2] is reported as 0 of 6.
